Measurements: paper PMC10806400
Results are given in words; binding and its absence hold for the method and conditions named. A result given as binding can be weak or reduced; the word gives no strength. Sequences can lack the tags named with a protein. For some assays here: Binding seen in cells or lysates may run through a third protein.

T1: GST-Rab5A(wt) (D. discoideum) (UniProt Q86JP3)
T1 sequence: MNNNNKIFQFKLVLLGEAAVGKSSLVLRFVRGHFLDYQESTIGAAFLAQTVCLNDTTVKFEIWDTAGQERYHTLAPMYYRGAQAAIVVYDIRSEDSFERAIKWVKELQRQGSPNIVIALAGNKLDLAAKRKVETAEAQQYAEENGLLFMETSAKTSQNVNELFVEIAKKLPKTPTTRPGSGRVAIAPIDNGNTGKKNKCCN


Tests used:
[1] = molecular target: T1, GST-Rab5A(wt) (D. discoideum); assay: pull-down; GST-Rab5A(wt) (or GST) bound to glutathione-agarose, purified IqgC added; anti-IqgC immunoblot; 50 mM Tris pH 8, 1 mM EGTA, 40 mM NaCl, 1 mM DTT, 0.5% NP40; both purified
[2] = molecular target: GST-IqgC (full length) (D. discoideum); assay: pull-down; GST-IqgC bound to glutathione-agarose; YFP-Rab5A proteins from lysates of transfected wild-type cells; anti-GFP immunoblot, densitometry against expression in lysates; only the target purified

| Molecule | binding [1] | binding [2] |
| --- | --- | --- |
| purified IqgC (D. discoideum) | binds |  |
| YFP-Rab5A (wild type) (protein, UniProt Q86JP3 1-201) MNNNNKIFQFKLVLLGEAAVGKSSLVLRFVRGHFLDYQESTIGAAFLAQTVCLNDTTVKFEIWDTAGQERYHTLAPMYYRGAQAAIVVYDIRSEDSFERAIKWVKELQRQGSPNIVIALAGNKLDLAAKRKVETAEAQQYAEENGLLFMETSAKTSQNVNELFVEIAKKLPKTPTTRPGSGRVAIAPIDNGNTGKKNKCCN |  | binds |
